Measured values from PMC9935893.
Substitutions are numbered along the chain they refer to. No constants are given. Whether binding was seen depends on the method and setting. For part of these data: In cells and extracts the contact can be indirect. Some results given as binding are weak or reduced against the parent protein; the word gives no strength. For part of these data: Where a sequence is shown, tags or fusion partners need not be part of it.

Amino acid sequences for entries named in this document (tags omitted).
UniProt O14744: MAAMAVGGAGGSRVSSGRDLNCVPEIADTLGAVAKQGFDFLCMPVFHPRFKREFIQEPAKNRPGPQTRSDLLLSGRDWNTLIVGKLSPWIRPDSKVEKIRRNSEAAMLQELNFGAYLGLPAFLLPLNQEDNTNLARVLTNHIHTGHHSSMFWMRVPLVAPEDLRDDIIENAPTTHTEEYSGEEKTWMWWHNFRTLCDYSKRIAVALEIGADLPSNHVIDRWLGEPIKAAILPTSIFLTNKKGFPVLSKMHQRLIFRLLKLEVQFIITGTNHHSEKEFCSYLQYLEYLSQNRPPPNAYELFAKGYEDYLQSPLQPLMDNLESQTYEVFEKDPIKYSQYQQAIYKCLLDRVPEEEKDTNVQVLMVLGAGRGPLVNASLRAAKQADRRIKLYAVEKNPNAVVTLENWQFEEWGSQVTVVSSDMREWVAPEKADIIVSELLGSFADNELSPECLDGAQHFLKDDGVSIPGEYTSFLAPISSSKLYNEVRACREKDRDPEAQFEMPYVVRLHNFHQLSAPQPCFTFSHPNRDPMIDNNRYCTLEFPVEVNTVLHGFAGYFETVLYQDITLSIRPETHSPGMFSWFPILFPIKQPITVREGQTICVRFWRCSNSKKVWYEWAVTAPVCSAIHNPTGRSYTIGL
UniProt Q99873: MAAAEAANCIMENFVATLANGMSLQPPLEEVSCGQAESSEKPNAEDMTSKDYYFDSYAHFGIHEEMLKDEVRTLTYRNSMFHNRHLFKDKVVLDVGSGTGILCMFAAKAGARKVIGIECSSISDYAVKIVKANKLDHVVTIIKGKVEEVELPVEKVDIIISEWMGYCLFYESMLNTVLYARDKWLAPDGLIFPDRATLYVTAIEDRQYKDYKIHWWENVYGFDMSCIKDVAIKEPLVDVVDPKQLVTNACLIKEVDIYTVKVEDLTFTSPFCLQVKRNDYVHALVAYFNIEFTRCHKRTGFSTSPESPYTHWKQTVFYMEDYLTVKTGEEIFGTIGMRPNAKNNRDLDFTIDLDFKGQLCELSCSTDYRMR

T1: Unc51-like kinase 3 (ULK3), endogenous (human (endogenous in SCC13 and Cal27)) (UniProt Q6PHR2)
T1 sequence: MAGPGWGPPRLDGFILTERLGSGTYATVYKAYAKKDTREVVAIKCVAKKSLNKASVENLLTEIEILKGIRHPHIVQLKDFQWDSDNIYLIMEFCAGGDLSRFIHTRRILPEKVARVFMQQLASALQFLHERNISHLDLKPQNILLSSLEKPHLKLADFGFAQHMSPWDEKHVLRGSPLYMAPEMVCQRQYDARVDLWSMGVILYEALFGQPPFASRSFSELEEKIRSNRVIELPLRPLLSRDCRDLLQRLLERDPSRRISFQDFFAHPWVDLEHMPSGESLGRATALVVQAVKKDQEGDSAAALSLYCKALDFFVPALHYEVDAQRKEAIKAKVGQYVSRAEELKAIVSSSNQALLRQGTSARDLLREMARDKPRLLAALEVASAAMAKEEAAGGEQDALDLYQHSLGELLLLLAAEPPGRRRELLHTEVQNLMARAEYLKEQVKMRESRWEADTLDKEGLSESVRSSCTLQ

T2: wild-type ULK3, FLAG-tagged, in HeLa cells (UniProt Q6PHR2)
T2 sequence: T1 sequence

T3: ULK3 (K44H), epitope-tagged, in HEK293T cells (UniProt Q6PHR2)
T3 sequence: T1 sequence with K44H

T4: ULK3 (K139R), epitope-tagged, in HEK293T cells (UniProt Q6PHR2)
T4 sequence: T1 sequence with K139R

T5: wild-type ULK3, epitope-tagged, in HEK293T cells (UniProt Q6PHR2)
T5 sequence: T1 sequence

T6: purified recombinant His-tagged ULK3 (UniProt Q6PHR2)
T6 sequence: T1 sequence

B1: purified recombinant His-tagged ULK3 (enzyme, UniProt Q6PHR2 1-472)
chain: T1 sequence

Assays:
[1] = molecular target: T1, Unc51-like kinase 3 (ULK3), endogenous (human (endogenous in SCC13 and Cal27)); experiment: co-IP; SCC13 cells, endogenous proteins; IP with anti-ULK3 or IgG then PRMT1 and PRMT5 immunoblot; IP with anti-PRMT1, anti-PRMT5 or IgG then ULK3 immunoblot
[2] = molecular target: T1, Unc51-like kinase 3 (ULK3), endogenous (human (endogenous in SCC13 and Cal27)); experiment: proximity ligation; Duo-link PLA on Cal27 and SCC13 cells with anti-ULK3 and anti-PRMT1 or anti-PRMT5 antibodies; anti-ULK3 alone or IgG as controls; endogenous proteins
[3] = molecular target: T2, wild-type ULK3, FLAG-tagged, in HeLa cells; experiment: co-IP; HeLa cells mock-transfected or transfected with ULK3 vectors; IP with FLAG antibodies; immunoblot of endogenous PRMT1 and PRMT5
[4] = molecular target: T3, ULK3 (K44H), epitope-tagged, in HEK293T cells; experiment: co-IP; HEK293T (text: HEK293) cells transfected with epitope-tagged ULK3 vectors; IP with anti-epitope antibodies (FLAG or V5); immunoblot of endogenous PRMT1 and PRMT5
[5] = molecular target: T4, ULK3 (K139R), epitope-tagged, in HEK293T cells; experiment: as above
[6] = molecular target: T5, wild-type ULK3, epitope-tagged, in HEK293T cells; experiment: as above
[7] = molecular target: T6, purified recombinant His-tagged ULK3; experiment: pull-down; recombinant FLAG-PRMT1 or FLAG-PRMT5 admixed with His-ULK3, pulled down with HisPur Ni-NTA magnetic beads; 150 mM NaCl, 100 mM Tris pH 8, 0.5% NP40, 10% glycerol, 4 h at 4 °C; one wash at 300 mM NaCl; FLAG and ULK3 immunoblots; both purified
[8] = molecular target: T6, purified recombinant His-tagged ULK3; experiment: condition: only PRMT heated for 20 min at 90 °C before incubation with ULK3; pull-down; recombinant PRMT1 and PRMT5 heated for 20 min at 90 °C before incubation with His-ULK3; Ni-NTA pull-down and immunoblots as for the unheated proteins; both purified
[9] = molecular target: recombinant FLAG-tagged PRMT5 (UniProt O14744); experiment: pull-down; recombinant FLAG-PRMT1 or FLAG-PRMT5 incubated with His-ULK3, PRMT pulled down with anti-FLAG antibodies and protein G magnetic beads; 150 mM NaCl, 100 mM Tris pH 8, 0.5% NP40, 10% glycerol, 4 h at 4 °C; immunoblots; both purified
[10] = molecular target: recombinant FLAG-tagged PRMT1 (UniProt Q99873); experiment: as above

Molecule | binding [1] | binding [2] | binding [3] | binding [4] | binding [5] | binding [6] | binding [7] | binding [8] | binding [9] | binding [10]
PRMT1, endogenous (from UniProt Q99873 1-371) (enzyme) | binds | binds | binds | binds | binds | binds |  |  |  | 
PRMT5, endogenous (from UniProt O14744 1-637) (enzyme) | binds | binds | binds | binds | binds | binds |  |  |  | 
recombinant FLAG-tagged PRMT1 (from UniProt Q99873 1-371) (enzyme) |  |  |  |  |  |  | binds | no binding |  | 
recombinant FLAG-tagged PRMT5 (from UniProt O14744 1-637) (enzyme) |  |  |  |  |  |  | binds | no binding |  | 
B1 |  |  |  |  |  |  |  |  | binds | binds
